Laboratory results from PubChem BioAssay AID504444 (National Center for Advancing Translational Sciences (NCATS), 2011).
Screen size: about 360,000 compounds; about 7,500 (2.1%) were called active. Inconclusive means that the source gave no clear call. Such entries were picked first, then a sample of the others. The call rests on the fitted dose curve; in most records, active means well fitted inhibition curve with a large enough effect; inconclusive means small, poorly fitted or top-dose-only effect, or effect the other way; inactive means flat fitted curve, though single readings scatter. A potency beside an inconclusive call is a rough fit, not a confirmed value.

Assay: Nrf2 qHTS screen for inhibitors; further: nearly all actives have a fitted effect of over 60% in size
Settings: A549 ARE-Fluc reporter, luciferase luminescence, 18-24 h; series mostly up to 46 µM
In short: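 In this cell-based qHTS, ARE-driven firefly luciferase in A549 cells reports Nrf2 activity; the luminescent signal after BugLite lysis is the measured value, with a prior CellTiter-Fluor read for cell health.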
Potency means the concentration at half of the fitted maximal effect.

Row | Structure (SMILES) | Potency
1 | O=C(COCc1cc(-c2cccs2)on1)Nc1cccc(Cl)c1Cl | inconclusive: 18.4 µM [activator, single point]
2 | CSCCC(NC(=O)CCC(=O)OCC(=O)[C@@]1(O)CCC2[C@@H]3CCC4=CC(=O)C=C[C@]4(C)C3[C@@H](O)C[C@@]21C)C(=O)O (stereo partly drawn) | active: 0.206 µM
3 | O=C(c1cc(-c2ccc3c(c2)OCO3)on1)N1CCN(c2ccc(F)cc2)CC1 | inconclusive: 13 µM [falling, partial curve]
4 | Cc1cccn2c(=O)cc(COC(=O)C(C)Oc3ccccc3)nc12 (stereo not drawn) | inconclusive: 6.51 µM [activator, single point]
5 | CCN(C(=O)C1CCCCC1)c1nnc(-c2cccnc2)s1 | inconclusive: 23.1 µM [falling, single point]
6 | Cc1cccc(N(CC(=O)NCCSCc2ccc(Cl)cc2)S(C)(=O)=O)c1C | inconclusive: 29.1 µM [falling, single point]
7 | CCn1c(=NC(=O)CS(=O)(=O)c2ccc(F)cc2)sc2cccc(OC)c21 | active: 20.6 µM
8 | CC(=O)c1cccc(NC(=O)c2cccn2-c2nnc(N3CCCCC3)s2)c1 | inconclusive: 14.6 µM [activator, partial curve, poor fit]
9 | O=Cc1s/c(=N\S(=O)(=O)c2ccccc2)n(CCCCl)c1Cl | inconclusive: 29.1 µM [falling, single point]
10 | COc1ccc(-c2nc(-c3ccccn3)ncc2S(C)(=O)=O)cc1 | inactive
11 | O=C(NC(=S)Nc1ccc(N2CCOCC2)cc1)c1cccc(Cl)c1 | inconclusive: 25.9 µM [falling, partial curve, poor fit]
12 | CC12CCC(=O)N1C(C(=O)NCc1ccc(Cl)cc1Cl)CS2 (stereo not drawn) | inactive
13 | CCCCOc1ccc(C(=O)N2CCC(c3nc4ccccc4o3)CC2)cc1 | inconclusive: 32.6 µM [falling, partial curve, poor fit]
14 | CC(=O)Nc1c(-c2ccccc2)nc2ccc(Cl)cn12 | inconclusive: 29.1 µM [falling, partial curve, poor fit]
15 | Cc1ccc(S(=O)(=O)CCC(=O)Nc2cccc(S(=O)(=O)N3CCCCCC3)c2)cc1 | inconclusive: 14.6 µM [falling, partial curve, poor fit]
16 | COc1ccc(Br)cc1/C=N/NC(=O)c1cccnc1 | inconclusive: 4.11 µM [activator, single point]
17 | CCOC(=O)c1ccc(NC(=O)C2=C(C)Nc3nc(SCc4ccc(Cl)cc4)nn3C2c2ccc(C)cc2)cc1 (stereo not drawn) | inactive
18 | COc1cnn(-c2ccc(C)cc2)c(=O)c1Br | inconclusive: 13 µM [activator, single point]
19 | O=C1c2ccccc2C(=O)N1CCC#Cc1ccc2cc(CCO)oc(=O)c2c1 | inconclusive: 20.6 µM [falling, single point]
20 | Oc1ccc(Cc2ccccc2)c2cccnc12 | inactive
21 | COc1cccc(CN(C)CC(=O)Nc2cccc(C(F)(F)F)c2)c1OC | inconclusive: 20.6 µM [falling, single point]

Row | Structure (SMILES) | Potency
22 | O=C(c1ccc2c(c1)N(Cc1ccc(Cl)cc1)C(=O)c1ccccc1S2=O)N1CCN(c2ccccc2F)CC1 (stereo not drawn) | inactive
23 | Cc1ccc(-n2nc(C)c3c(C)c(CCC(=O)NCCCOC(C)C)c(C)nc32)cc1 | inconclusive: 25.9 µM [falling, single point]
24 | CN(C)S(=O)(=O)c1ccc(C(=O)NCCSc2ccccc2)cc1 | inconclusive: 14.6 µM [activator, single point]
25 | CCOC(=O)c1cc(=O)n(Cc2ccccc2C)c2ccccc12 | inconclusive: 18.4 µM [falling, single point]
26 | N#Cc1cnc(SCC(=O)c2ccccc2)nc1N | inconclusive: 29.1 µM [activator, single point]
27 | Cn1cc(CN2CCCC(C(=O)Nc3cccc(-c4cc5ccccc5[nH]4)c3)C2)cn1 (stereo not drawn) | active: 23.1 µM
28 | CN(C)c1ccc(-c2cc([C@H]3[C@@H]4C=CCC[C@@]4(C)C(=O)N3Cc3ccccc3)ccc2F)cc1 | inconclusive: 16.4 µM [falling, single point]
29 | CC(=O)Nc1ccc(S(=O)(=O)N2CCN=C2SCc2ccc(F)cc2)cc1 | inconclusive: 20.6 µM [falling, single point]
30 | CCOCCOC(=O)c1[nH]c2c(c1C)C(=O)CC(c1ccccc1)C2 (stereo not drawn) | inconclusive: 0.92 µM [activator, full curve]
31 | Cn1ccnc1SCC(=O)Nc1cccc(S(=O)(=O)N2CCCCCC2)c1 | inconclusive: 0.164 µM [falling, full curve, poor fit]
32 | CCOc1ccccc1NC(=O)C(NS(=O)(=O)c1ccc2c(c1)CCC(=O)N2)c1ccccc1 (stereo not drawn) | inactive
33 | N#CC(C#N)=Cc1cnc(N2CCN(c3ccccc3)CC2)s1 | inconclusive: 1.3 µM [falling, full curve]
34 | CCn1cc(C(=O)O)c(=O)c2cnc(N3CCN(C(=S)NC(=O)c4ccccc4)CC3)nc21 | inconclusive: 6.51 µM [activator, full curve, poor fit]
35 | O=C(N/N=C/c1ccccc1C(=O)O)c1cccc(S(=O)(=O)N2CCOCC2)c1 | inactive
36 | CCOc1ccc(C(=O)Nc2nnc(S(=O)(=O)N(CC)c3ccccc3C)s2)cc1 | inconclusive: 29.1 µM [activator, partial curve, poor fit]
37 | Cc1ccccc1NC(=O)Nc1ccccc1N1CCCCC1 | inconclusive: 29.1 µM [falling, single point]
38 | CCn1ccnc1CNCc1cn(-c2cc(C)ccc2C)nc1-c1ccccc1 | inconclusive: 25.9 µM [falling, single point]
39 | COc1ccc(NC(=O)[C@@H]2CC=C[C@@H]3CCN(Cc4ccc(Cl)c(Cl)c4)C(=O)[C@@H]32)cc1 | inactive
40 | COc1ccc(N2CC(c3nc(-c4cc(OC)c(OC)c(OC)c4)no3)CC2=O)cc1Cl (stereo not drawn) | inconclusive: 20.6 µM [falling, single point]
41 | O=C(CCS(=O)(=O)c1cccs1)Nc1ccc(C(=O)Nc2cccc(Cl)c2)cc1 | inconclusive: 18.4 µM [falling, single point]
42 | CCN1CCN(CC(=O)Nc2ccc(Cl)c(S(=O)(=O)N(C)C)c2)CC1 | inconclusive: 3.66 µM [activator, full curve, poor fit]

Random excerpt: 2 compounds from above, in no set order.
Row | Structure (SMILES) | Potency
26 | N#Cc1cnc(SCC(=O)c2ccccc2)nc1N | inconclusive: 29.1 µM [activator, single point]
12 | CC12CCC(=O)N1C(C(=O)NCc1ccc(Cl)cc1Cl)CS2 (stereo not drawn) | inactive

(next part)

Row | Structure (SMILES) | Potency
43 | O=C(Nc1nnc(Cc2ccc(Cl)cc2)s1)C1CCN(C(=O)c2ccco2)CC1 | active: 16.4 µM
44 | COc1ccc(CNc2ccc3cc(S(=O)(=O)N4CCCCC4)ccc3n2)cc1 | inconclusive: 29.1 µM [falling, single point]
45 | Clc1ccc(-c2csc(-c3cccnc3)n2)s1 | inconclusive: 29.1 µM [activator, single point]
46 | COc1ccc(-c2nc(CS(=O)CC(=O)NC3CCCCC3)c(C)o2)cc1OC (stereo not drawn) | inconclusive: 2.06 µM [activator, full curve]
47 | CCc1c(C(=O)N2CCN(c3ccccc3F)CC2)[nH]c(C)c1C(C)=O | inconclusive: 32.6 µM [falling, single point]
48 | CN(C)c1ncc(S(=O)(=O)c2ccccc2)c(-c2ccccc2Cl)n1 | inactive
49 | Cc1ccc(Nc2nc(Cl)nc(NC(C)(C)C)n2)cc1 | inconclusive: 14.6 µM [activator, partial curve, poor fit]
50 | CCc1ccc(NC(=O)COC(=O)c2cccs2)cc1 | inconclusive: 29.1 µM [activator, single point]
51 | COc1ccc(-c2cc3nc(-c4ccccc4)cc(N4CCC5(CC4)OCCO5)n3n2)cc1 | inconclusive: 14.6 µM [falling, partial curve]
52 | Cc1ccc(CNC(=O)CN(c2ccc(C(C)C)cc2)S(=O)(=O)c2c(C)n[nH]c2C)cc1 | active: 23.1 µM
53 | CC1CCCC(C)N1CCCNC(=O)Cn1c(=O)c2cccn2c2cccnc21 (stereo not drawn) | inconclusive: 29.1 µM [activator, single point]
54 | Cc1ccc2[nH]c3c(c2c1)CCC3=O | inactive
55 | C#CCOCCOCCOCCNc1nc(N2CCN(C(=O)CCCCCCCCCCNC(=O)[C@@H](CCC(=O)O)n3cc(CCCCCN)nn3)CC2)nc(N2CCN(C(=O)CCCCCCCCCCNC(=O)[C@H]([C@@H](C)CC)n3cc(CCCCCN)nn3)CC2)n1 | inconclusive: 29.1 µM [falling, single point]
56 | COCCn1c(NC(=S)NC(=O)C23CC4CC(CC(C4)C2)C3)cc(=O)[nH]c1=O | inconclusive: 1.16 µM [falling, partial curve, poor fit]
57 | O=[N+]([O-])c1ccc(-c2nc(NCC3CCCO3)c3ccccc3n2)cc1 (stereo not drawn) | inconclusive: 18.4 µM [falling, single point]
58 | COc1cccc(NC(=O)CN2CCCN(S(=O)(=O)c3ccc(Br)cc3)CC2)c1 | inconclusive: 32.6 µM [falling, single point]
59 | CC(C(=O)NCc1ccc(F)cc1)n1ccc2cc(S(=O)(=O)N3CCCC3)ccc21 (stereo not drawn) | active: 20.6 µM
60 | CCSc1nnc(NC(=O)c2ccc(S(=O)(=O)N(C)C)cc2)s1 | inconclusive: 7.31 µM [activator, partial curve]
61 | O=S1(=O)C=C(SCc2cccc(Cl)c2)Nc2ccccc21 | active: 20.6 µM
62 | CC1CCc2c(sc3nc(CSc4ncn[nH]4)[nH]c(=O)c23)C1 (stereo not drawn) | inconclusive: 23.1 µM [falling, partial curve, poor fit]
63 | COc1ccccc1CNC(=O)CN1C(=O)CSc2c1c(C)nn2-c1ccccc1 | inconclusive: 0.58 µM [falling, full curve, poor fit]
